# Measurements published in PubChem BioAssay AID588499 (NMMLSC, 2011).
# The campaign covered roughly 360,000 compounds. About 610 (0.17%) were called active. The shares of active, inactive and inconclusive entries below differ from those in the screen. No stated cut-off is given here; in the data, active means inhibition above about 30%; inconclusive means no clear call, values can overlap the other calls; inactive means below that.
# System: Botulinum neurotoxin type A light chain protease (Clostridium botulinum A str. ATCC 3502)
# Experiment: blockers of BoNT/A LC substrate cleavage – biochemical, flow cytometry, MLPCN library, primary screen (AID 588499); further: plate controls were buffer without enzyme for full effect and enzyme alone for no effect
# Settings: multiplex microsphere protease substrate cleavage, at 10 µM, hits give high values
row,Structure (SMILES),inhibition
1,Cc1ccc(C2C(C#N)=C(N)SC(N)=C2C#N)c(C)c1,active: 40%
2,CCN(CC)C(=O)C1=C(C)N(Cc2ccccc2)C(=O)C(CC(=O)NC2CCCC2)C1 (centres undefined),inactive: -0.2%
3,COc1ccc(N2C(=O)CCC(C(C)=O)=C2C)cc1,inconclusive: -0.6%
4,C=CCN1C(=O)C(C)(C)Nc2ccccc21,inconclusive: 0.7%
5,CS(=O)(=O)N(Cc1ccccc1)c1ccc(C(=O)Nc2ccc(C(N)=O)cc2)cc1,inconclusive: 1.1%
6,C/C(=N/Nc1ncc(C(F)(F)F)cc1Cl)c1ccncc1,inactive: -0.6%
7,CN(C)c1nc(Nc2ccc(F)cc2)nc(Oc2ccc(F)cc2)n1,active: 57.2%
8,c1coc(-c2nnc(-c3cccs3)o2)c1,inconclusive: 1.7%
9,CCOC(=O)c1cnn(-c2nc(-c3ccccc3F)cs2)c1C(F)(F)F,inconclusive: 3.2%
10,Cc1nn(C)cc1C(=O)Nc1cc(Oc2ccc(Cl)cc2)cc([N+](=O)[O-])c1,inactive: 0.4%
11,Cc1ccc(/C=C/C(=O)Nc2nccs2)o1,inactive: -0.6%
12,Cc1oc(/N=C/c2ccccc2O)c(C#N)c1C,inactive: 0.3%
13,O=C(c1ccccc1)c1ccc(Cn2cc(-c3ccccc3)nn2)cc1,inactive: -0.3%
14,OCC[C@@H]1NCc2cc(CO)cc(-c3ccccc3)c21,inactive: -0.2%
15,CCn1c(=O)c(C(=O)NC(C)C)c(O)c2ccccc21,inconclusive: -1.2%
16,CN1CCN(S(=O)(=O)c2ccc(NC(=O)C(C)(C)C)cc2)CC1,inconclusive: 3.6%
17,CCN(CC)c1ccc(/C=N/N2CCN(c3ccccn3)CC2)cc1,inconclusive: 3.5%
18,Cc1ccc(C(=O)C2CCN(CC(=O)Nc3ccc(N(C)C)cc3)CC2)cc1,inconclusive: -2%
19,Cc1cccc(N2CCN(CC(O)COCc3cccs3)CC2)c1C (centres undefined),inactive: -1.4%
20,CCOc1cc(/C=C2\C(=O)N(c3nc(-c4ccc(Br)cc4)cs3)N=C2c2ccccc2)ccc1O,inactive: 5%

row,Structure (SMILES),inhibition
1,O=C(c1ccco1)N1CCN(C(=O)C2CCN(S(=O)(=O)c3cccs3)CC2)CC1,inactive: 3.5%
2,O=C(CCN1Cc2ccccc2C1)c1ccc2c(c1)OCCO2,inconclusive: 3.7%
3,CCOc1ccccc1NC(=O)CSc1nnc(-c2ccco2)n1Cc1ccco1,inactive: 2.5%
4,COCCN(C(=O)COC(=O)c1sccc1C)c1c(N)n(Cc2ccccc2)c(=O)[nH]c1=O,inactive: -2%
5,COC(=O)c1ccc(CN2CCCC(CNC(=O)Cc3ccc(OC)cc3)C2)cc1 (centres undefined),inconclusive: 4.9%
6,CC(=O)Nc1ccc(NC(=O)c2ccc(N(Cc3ccccc3C)S(C)(=O)=O)cc2)cc1,inactive: 0%
7,O=c1c2ccccc2nc(-c2ccoc2)n1-c1ccccc1,inconclusive: 1.3%
8,O=C(N/N=C/c1cccs1)c1c[nH]c2ccccc12,inactive: -0.9%
9,CCOc1ccc2nc(Nc3nc(CSc4nnnn4-c4ccccc4)cc(=O)[nH]3)nc(C)c2c1,inconclusive: -0.6%
10,O=C(O)c1ccccc1COc1ccccc1Cl,inconclusive: -2.2%
11,CCCOP(=O)(c1ccc(N(C)C)cc1)C(Nc1ccccc1)c1ccc(C)cc1 (centres undefined),inconclusive: 1.7%
12,CCCCCNC(=O)C(C)Sc1ccc(Cl)cc1 (centres undefined),inconclusive: 16.1%
13,CC(C)CN1C(=O)C(=O)N(CC(=O)N2c3ccccc3NC(=O)CC2C)C1=O (centres undefined),inconclusive: 0.5%
14,Cc1cc(C)c(C)c(S(=O)(=O)N2CCN(Cc3nc4ccccc4[nH]3)CC2)c1C,inconclusive: 2.2%
15,CCCCCn1c(=O)c(C(=O)Nc2cccc(C)c2)c(O)c2ccccc21,inconclusive: -4%
16,CC(C)(C)NS(=O)(=O)c1ccc(NC(=O)c2cc(-c3ccccc3)nc3ccccc23)cc1,inconclusive: 0.2%
17,FC(F)(F)c1nc(SCc2ccc(Cl)cc2Cl)n[nH]1,inconclusive: -8%
18,CCOc1cccc(-c2nnc(SCC(=O)Nc3cc(OC)cc(OC)c3)n2N)c1,inconclusive: -1.1%
19,CCOc1ccc(CCNC(=O)COC(=O)C2CCN(S(=O)(=O)c3ccc(C)c(C)c3)CC2)cc1OCC,inactive: -0.5%
20,Cc1onc(-c2ccccc2Cl)c1C(=O)Nc1ccc(Cl)cn1,inconclusive: -55.5%

# Single values from the results shown.
# `C/C(=N/Nc1ncc(C(F)(F)F)cc1Cl)c1ccncc1` | inhibition: inactive: -0.6%
# `OCC[C@@H]1NCc2cc(CO)cc(-c3ccccc3)c21` | inhibition: inactive: -0.2%
# `Cc1ccc(/C=C/C(=O)Nc2nccs2)o1` | inhibition: inactive: -0.6%
# `c1coc(-c2nnc(-c3cccs3)o2)c1` | inhibition: inconclusive: 1.7%

# Later entries:

row,Structure (SMILES),inhibition
1,CCOC(=O)/C(=C/Nc1ccc(F)cc1)[N+](=O)[O-],inconclusive: -0.3%
2,Cc1ccc(OCC(=O)Nc2ccc(F)cc2)cc1C,inconclusive: -1.5%
3,O=C(COC(=O)c1nc(Cl)ccc1Cl)c1ccc(Cl)s1,inactive: -0.5%
4,Cc1ccccc1C(=O)NC1CCN(CC(=O)Nc2nccs2)CC1,inconclusive: -0.3%
5,CC(=O)N/C(=C/c1ccc2c(c1)OCO2)C(=O)NCCO,inactive: 1.3%
6,O=C(Nc1ccc(C2CCCCC2)cc1)C1CCCN(c2ncccn2)C1 (centres undefined),inconclusive: 5.8%
7,COc1ccc(NC(=O)CSc2nnc(Cc3ccc(C)cc3)c(=O)n2N)cc1,inconclusive: 2%
8,O=C(NCc1nc(-c2ccc(C(F)(F)F)cc2)no1)c1cccs1,inconclusive: 1.2%
9,CSCC(O)Cn1[nH]c(=O)c2cc(Cl)c(Cl)cc2c1=O (centres undefined),inconclusive: 1.6%
10,CC(C)(C)NS(=O)(=O)c1ccc(N2C(=O)c3ccccc3C2=O)cc1,inconclusive: -3.8%
11,O=C(N[C@H]1CC1c1ccccc1)c1ccc([N+](=O)[O-])cc1 (some centres undefined),inconclusive: -59.9%
12,COc1ncnc2c1ncn2CCCNCc1ccccn1,inactive: 0.1%
13,CN(Cc1cnn(-c2ccccc2)c1)C(=O)c1ccc(S(=O)(=O)NCc2ccco2)cc1,inactive: -0.6%
14,CC/C(=N/O)C(=O)c1ccc(Br)cc1,inactive: -0.6%
15,CC(C)C1Cc2c(C#N)c(N)sc(=S)c2CO1 (centres undefined),active: 72.2%
16,Cc1nn(-c2ccccc2)c2sc(C(=O)NC3CC3)cc12,inconclusive: 2.7%
17,COc1ccc(/C=C2\SC(=O)N(CC(=O)NC3CCS(=O)(=O)C3)C2=O)cc1 (centres undefined),inactive: -0.1%
18,CC(=O)N1CCN(C(=O)COC(=O)c2ccc(S(C)(=O)=O)cc2)CC1,inactive: 1.2%
19,CCCCN(CC)C(=O)c1cc2cc3ccc(OC)cc3nc2o1,inactive: -1.3%
